Results: the supplement of paper PMC10849652
The list shows a part of the results.

Amino acid sequences for entries named in this document (tags omitted). A change or cut given only in a name is not applied to a line headed by its entry.
UniProt P55789: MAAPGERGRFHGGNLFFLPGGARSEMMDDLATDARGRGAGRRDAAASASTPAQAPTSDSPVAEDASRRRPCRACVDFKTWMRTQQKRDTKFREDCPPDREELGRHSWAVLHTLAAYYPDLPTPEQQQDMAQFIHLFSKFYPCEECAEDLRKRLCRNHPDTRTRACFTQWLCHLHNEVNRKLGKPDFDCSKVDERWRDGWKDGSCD
UniProt Q7L5D6: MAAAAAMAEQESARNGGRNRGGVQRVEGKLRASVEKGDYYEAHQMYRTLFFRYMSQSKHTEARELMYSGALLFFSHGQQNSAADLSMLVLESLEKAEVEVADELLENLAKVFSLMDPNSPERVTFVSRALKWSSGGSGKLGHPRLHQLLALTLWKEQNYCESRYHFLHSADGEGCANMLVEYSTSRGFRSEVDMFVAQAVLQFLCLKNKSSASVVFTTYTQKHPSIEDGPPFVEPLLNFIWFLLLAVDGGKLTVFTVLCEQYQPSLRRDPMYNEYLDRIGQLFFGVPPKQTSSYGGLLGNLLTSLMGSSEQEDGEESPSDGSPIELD
UniProt P22102: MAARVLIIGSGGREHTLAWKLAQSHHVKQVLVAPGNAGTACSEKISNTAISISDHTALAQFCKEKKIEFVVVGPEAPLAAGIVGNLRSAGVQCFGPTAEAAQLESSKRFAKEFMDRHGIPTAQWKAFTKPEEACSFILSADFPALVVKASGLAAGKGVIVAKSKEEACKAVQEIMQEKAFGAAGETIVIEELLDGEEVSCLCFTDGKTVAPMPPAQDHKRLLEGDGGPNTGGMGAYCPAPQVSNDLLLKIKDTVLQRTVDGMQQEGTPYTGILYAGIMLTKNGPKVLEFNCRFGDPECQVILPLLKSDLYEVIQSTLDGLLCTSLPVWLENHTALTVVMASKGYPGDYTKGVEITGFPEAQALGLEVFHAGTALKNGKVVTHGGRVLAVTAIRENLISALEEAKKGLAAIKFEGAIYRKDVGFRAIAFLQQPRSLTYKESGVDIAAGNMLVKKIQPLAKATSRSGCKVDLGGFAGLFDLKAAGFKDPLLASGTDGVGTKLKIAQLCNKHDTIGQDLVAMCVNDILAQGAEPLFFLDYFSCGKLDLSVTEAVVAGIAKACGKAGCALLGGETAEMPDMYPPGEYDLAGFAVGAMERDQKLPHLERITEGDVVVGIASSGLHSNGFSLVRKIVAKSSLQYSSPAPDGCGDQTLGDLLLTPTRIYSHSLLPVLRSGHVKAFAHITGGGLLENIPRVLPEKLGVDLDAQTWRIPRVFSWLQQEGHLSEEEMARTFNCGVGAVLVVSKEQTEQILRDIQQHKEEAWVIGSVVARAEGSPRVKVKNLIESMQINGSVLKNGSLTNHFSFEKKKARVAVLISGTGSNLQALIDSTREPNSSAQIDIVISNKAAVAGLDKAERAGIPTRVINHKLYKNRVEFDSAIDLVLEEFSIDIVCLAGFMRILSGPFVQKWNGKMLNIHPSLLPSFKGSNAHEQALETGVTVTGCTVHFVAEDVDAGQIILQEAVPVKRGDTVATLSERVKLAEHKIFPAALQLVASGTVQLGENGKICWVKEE
UniProt Q13069: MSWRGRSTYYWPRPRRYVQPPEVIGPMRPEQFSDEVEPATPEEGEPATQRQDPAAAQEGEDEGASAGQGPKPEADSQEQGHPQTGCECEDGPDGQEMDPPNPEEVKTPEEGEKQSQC
UniProt O94915: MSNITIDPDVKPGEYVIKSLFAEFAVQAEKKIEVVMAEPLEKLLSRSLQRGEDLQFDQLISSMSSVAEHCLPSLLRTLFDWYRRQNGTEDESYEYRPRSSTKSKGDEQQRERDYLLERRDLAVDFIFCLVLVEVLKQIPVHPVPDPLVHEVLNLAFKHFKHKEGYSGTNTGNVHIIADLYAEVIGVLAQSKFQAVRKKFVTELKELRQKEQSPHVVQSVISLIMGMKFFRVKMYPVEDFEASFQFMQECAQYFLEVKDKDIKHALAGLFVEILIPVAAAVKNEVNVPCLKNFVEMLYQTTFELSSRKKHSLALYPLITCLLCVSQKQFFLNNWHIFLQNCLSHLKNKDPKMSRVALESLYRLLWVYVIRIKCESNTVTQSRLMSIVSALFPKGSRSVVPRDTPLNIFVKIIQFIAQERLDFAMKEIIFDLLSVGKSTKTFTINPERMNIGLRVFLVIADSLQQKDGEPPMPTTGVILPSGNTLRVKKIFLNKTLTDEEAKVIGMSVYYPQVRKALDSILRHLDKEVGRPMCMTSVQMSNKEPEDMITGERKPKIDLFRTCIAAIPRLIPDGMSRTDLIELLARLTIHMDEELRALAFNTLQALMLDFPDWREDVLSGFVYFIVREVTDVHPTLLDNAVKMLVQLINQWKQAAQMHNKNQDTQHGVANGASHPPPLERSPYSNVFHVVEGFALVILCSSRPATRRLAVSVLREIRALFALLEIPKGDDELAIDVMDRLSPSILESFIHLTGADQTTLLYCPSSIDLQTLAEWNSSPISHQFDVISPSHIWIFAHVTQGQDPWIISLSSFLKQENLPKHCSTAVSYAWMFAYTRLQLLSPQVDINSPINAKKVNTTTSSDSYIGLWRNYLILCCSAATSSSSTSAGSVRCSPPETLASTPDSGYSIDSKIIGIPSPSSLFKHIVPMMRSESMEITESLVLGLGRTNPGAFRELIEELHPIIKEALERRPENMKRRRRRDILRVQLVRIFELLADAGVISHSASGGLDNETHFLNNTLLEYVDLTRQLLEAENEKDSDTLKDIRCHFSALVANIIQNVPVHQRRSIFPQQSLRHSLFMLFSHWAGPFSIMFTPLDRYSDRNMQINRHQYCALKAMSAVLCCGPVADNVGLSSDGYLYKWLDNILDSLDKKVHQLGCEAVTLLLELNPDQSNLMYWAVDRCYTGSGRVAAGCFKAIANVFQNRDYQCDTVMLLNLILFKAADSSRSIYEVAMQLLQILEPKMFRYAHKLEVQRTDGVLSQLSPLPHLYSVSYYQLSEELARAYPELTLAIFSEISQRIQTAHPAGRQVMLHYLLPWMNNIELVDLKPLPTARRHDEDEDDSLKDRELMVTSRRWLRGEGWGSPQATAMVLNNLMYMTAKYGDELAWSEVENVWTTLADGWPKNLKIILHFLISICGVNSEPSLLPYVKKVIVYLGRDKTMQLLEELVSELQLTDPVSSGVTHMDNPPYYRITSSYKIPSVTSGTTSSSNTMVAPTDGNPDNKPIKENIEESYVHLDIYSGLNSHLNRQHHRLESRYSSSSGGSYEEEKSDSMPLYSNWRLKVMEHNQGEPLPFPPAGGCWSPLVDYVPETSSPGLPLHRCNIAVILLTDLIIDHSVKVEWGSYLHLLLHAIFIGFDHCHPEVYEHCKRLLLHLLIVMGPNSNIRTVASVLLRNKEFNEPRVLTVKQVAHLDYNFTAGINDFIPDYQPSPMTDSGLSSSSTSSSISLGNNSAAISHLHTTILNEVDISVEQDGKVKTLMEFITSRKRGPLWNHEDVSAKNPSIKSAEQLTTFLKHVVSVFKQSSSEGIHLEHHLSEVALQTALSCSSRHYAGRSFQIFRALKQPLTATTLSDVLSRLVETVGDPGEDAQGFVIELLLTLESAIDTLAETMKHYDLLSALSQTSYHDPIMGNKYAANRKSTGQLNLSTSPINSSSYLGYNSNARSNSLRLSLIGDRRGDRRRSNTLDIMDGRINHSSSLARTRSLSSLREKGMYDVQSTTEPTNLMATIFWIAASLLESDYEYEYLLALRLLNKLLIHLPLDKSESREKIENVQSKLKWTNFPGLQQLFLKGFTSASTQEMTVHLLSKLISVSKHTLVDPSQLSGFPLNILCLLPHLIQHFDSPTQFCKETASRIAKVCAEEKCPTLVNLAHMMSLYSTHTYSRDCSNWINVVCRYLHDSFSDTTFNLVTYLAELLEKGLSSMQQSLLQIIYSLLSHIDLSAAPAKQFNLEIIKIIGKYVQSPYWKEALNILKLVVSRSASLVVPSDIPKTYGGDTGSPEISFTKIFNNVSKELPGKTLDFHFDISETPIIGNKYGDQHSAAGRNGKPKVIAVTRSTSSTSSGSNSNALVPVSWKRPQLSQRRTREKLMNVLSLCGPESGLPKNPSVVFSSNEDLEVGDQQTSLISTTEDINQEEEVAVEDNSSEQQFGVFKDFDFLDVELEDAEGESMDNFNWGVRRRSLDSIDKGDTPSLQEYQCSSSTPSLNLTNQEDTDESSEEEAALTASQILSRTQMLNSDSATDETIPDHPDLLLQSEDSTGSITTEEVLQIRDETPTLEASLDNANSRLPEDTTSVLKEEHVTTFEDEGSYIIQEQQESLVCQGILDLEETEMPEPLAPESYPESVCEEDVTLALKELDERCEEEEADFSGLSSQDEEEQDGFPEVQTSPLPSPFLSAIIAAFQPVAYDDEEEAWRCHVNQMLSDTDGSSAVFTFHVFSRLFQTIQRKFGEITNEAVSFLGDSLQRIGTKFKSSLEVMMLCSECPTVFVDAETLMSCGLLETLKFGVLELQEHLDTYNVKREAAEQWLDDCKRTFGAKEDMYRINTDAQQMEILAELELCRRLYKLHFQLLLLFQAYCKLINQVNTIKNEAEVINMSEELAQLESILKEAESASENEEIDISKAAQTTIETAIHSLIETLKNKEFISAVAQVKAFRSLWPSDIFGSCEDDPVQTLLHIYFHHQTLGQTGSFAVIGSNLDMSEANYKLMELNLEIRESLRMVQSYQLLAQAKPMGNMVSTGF
UniProt P50395: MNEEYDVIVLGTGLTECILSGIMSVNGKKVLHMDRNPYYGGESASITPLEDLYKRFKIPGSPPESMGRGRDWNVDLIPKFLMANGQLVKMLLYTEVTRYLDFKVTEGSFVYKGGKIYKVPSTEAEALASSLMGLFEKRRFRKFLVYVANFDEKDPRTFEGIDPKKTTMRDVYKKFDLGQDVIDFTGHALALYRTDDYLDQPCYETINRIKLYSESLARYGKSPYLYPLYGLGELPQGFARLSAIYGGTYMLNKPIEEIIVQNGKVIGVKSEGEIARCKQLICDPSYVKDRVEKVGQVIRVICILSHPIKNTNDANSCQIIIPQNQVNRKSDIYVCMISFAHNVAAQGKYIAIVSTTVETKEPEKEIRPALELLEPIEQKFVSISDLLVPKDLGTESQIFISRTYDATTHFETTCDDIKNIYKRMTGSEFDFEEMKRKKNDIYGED
UniProt Q495W5: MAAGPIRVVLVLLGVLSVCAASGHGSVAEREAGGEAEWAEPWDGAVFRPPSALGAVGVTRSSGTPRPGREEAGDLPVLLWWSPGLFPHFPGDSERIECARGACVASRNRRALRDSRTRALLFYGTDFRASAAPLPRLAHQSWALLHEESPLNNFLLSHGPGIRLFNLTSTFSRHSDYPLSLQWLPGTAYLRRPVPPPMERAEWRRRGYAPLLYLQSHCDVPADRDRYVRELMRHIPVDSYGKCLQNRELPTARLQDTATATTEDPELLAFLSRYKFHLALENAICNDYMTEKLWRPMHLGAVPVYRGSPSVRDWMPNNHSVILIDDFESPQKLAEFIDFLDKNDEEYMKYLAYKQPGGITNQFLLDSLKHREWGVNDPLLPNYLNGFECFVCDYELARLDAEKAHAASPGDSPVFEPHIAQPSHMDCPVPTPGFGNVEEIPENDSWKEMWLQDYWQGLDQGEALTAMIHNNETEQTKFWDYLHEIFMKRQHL
UniProt Q16595: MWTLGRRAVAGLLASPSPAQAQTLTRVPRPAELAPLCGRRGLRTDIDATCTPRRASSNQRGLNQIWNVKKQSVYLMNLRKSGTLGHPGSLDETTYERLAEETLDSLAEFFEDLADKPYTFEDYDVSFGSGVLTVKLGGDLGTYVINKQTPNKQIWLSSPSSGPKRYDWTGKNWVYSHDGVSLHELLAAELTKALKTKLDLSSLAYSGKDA
UniProt O14772: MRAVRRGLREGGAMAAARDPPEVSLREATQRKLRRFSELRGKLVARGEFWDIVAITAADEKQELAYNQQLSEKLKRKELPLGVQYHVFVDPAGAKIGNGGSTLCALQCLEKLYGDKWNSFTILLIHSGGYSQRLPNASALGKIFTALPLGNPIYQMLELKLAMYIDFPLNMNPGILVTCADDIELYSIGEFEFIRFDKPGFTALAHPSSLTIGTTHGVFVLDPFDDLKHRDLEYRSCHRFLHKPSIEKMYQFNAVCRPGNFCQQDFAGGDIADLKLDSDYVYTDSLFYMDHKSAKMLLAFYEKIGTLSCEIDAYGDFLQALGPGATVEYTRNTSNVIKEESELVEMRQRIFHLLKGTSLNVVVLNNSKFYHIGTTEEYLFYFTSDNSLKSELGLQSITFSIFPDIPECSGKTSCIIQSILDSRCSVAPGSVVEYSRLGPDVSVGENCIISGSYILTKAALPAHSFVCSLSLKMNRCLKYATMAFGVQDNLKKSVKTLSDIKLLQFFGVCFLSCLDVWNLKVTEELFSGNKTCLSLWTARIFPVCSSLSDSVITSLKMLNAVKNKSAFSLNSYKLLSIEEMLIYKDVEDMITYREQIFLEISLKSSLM

Columns and labels:
Assay in all cases: log2 fold change, soluble protein after heating vs DMSO (PISA); higher = thermal stabilisation; K562 cells, 10 uM, 30 min; active = over 0.2 and 3.5 SD of the protein, either way, in both replicates (recomputed)
[1] = compound: CS(=O)(=O)c1ccc(-c2cnc(N)c(C(=O)Nc3ccccc3)n2)cc1
Procedure, shortened: (§1)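 K562 cells at 2×10^6 cells/mL were treated with 10 μM compound for 30 min. Aliquots were heated for 3 min across 48°C-58°C, pooled, and extracted in PBS with 0.5% NP-40 at 4°C; soluble protein was the supernatant after 21,000xg for 90 min. Soluble protein was quantified by TMTpro 16plex LC-MS/MS with channel sums equalised, and reported as log2 fold change in thermal stability against DMSO controls, with values from duplicates.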

[2] = compound: C[C@@H](Oc1cc(-c2cnn(C3CCNCC3)c2)cnc1N)c1c(Cl)ccc(F)c1Cl [crizotinib]
Procedure, shortened: as §1

[3] = compound: C[C@@H]1COCCN1C2=NC(=NC(=C2)C3(CC3)S(=O)(=O)C)C4=C5C=CNC5=CC=C4
Procedure, shortened: as §1

[4] = compound: C[C@H](C1=CC=C(C=C1)C(=O)NC2=C3C=CNC3=NC=C2)N
Procedure, shortened: as §1

[5] = compound: C[C@H](Nc1ncnc2nc[nH]c12)c1cc2cccc(Cl)c2c(=O)n1-c1ccccc1 [duvelisib]
Procedure, shortened: as §1

[6] = compound: Cc1cc(Nc2cc(CN3CCOCC3)c3nc(C)c(Cc4ccc(Cl)cc4F)n3n2)n[nH]1 [gandotinib]
Procedure, shortened: as §1

[7] = compound: Cc1cc(Nc2cc(N3CCN(C)CC3)nc(Sc3ccc(NC(=O)C4CC4)cc3)n2)n[nH]1 [tozasertib]
Procedure, shortened: as §1

[8] = compound: Cc1cc(SCc2sc(-c3ccc(C(F)(F)F)cc3)nc2C)ccc1OCC(=O)O
Procedure, shortened: as §1

[9] = compound: Cc1ccc(-n2nc(C(C)(C)C)cc2NC(=O)Nc2ccc(OCCN3CCOCC3)c3ccccc23)cc1 [doramapimod]
Procedure, shortened: as §1

[10] = compound: Cc1ccc(C(=O)N(CCCN)[C@@H](c2nc3cc(Cl)ccc3c(=O)n2Cc2ccccc2)C(C)C)cc1 [ispinesib]
Procedure, shortened: as §1

[11] = compound: Cc1ccc(NC(=O)c2ccc(CN3CC[C@H](N(C)C)C3)c(C(F)(F)F)c2)cc1Nc1nccc(-c2cncnc2)n1 [bafetinib]
Procedure, shortened: as §1

[12] = compound: Cc1cccc(CC(=O)N2CCc3c2ccc(-c2cn(C)c4ncnc(N)c24)c3F)n1
Procedure, shortened: as §1

[13] = compound: Cc1cn(-c2cc(NC(=O)c3ccc(C)c(Nc4nccc(-c5cccnc5)n4)c3)cc(C(F)(F)F)c2)cn1 [nilotinib]
Procedure, shortened: as §1

[14] = compound: Cc1nc(Nc2n[nH]c3c2CN(C(=O)N[C@H](CN(C)C)c2ccccc2)C3(C)C)c2sccc2n1
Procedure, shortened: as §1

[15] = compound: Cc1nc(Nc2ncc(C(=O)Nc3c(C)cccc3Cl)s2)cc(N2CCN(CCO)CC2)n1 [dasatinib]
Procedure, shortened: as §1

[16] = compound: Cc1ncc(-c2ccnc(Nc3ccc(S(C)(=O)=O)cc3)n2)n1C(C)C
Procedure, shortened: as §1

[17] = compound: Cn1cc(-c2ccc3c(c2)CCN3C(=O)Cc2cccc(C(F)(F)F)c2)c2c(N)ncnc21
Procedure, shortened: as §1

[18] = compound: Cn1cc(-c2ccc3nnc(C(F)(F)c4ccc5ncccc5c4)n3n2)cn1
Procedure, shortened: as §1

[19] = compound: Cn1cncc1[C@@](N)(c1ccc(Cl)cc1)c1ccc2c(c1)c(-c1cccc(Cl)c1)cc(=O)n2C [tipifarnib]
Procedure, shortened: as §1

[20] = compound: FC(F)(F)c1ccc(/C=C/c2nc(COc3ccc(CCCCn4ccnn4)cc3)co2)cc1 [mubritinib]
Procedure, shortened: as §1

Measured: log2 fold change

GGT2 isoform 3 (UniProt P36268)
inactive: [1] -0.038 | [2] 0.108 | [3] -0.026 | [4] 0.008 | [5] 0.102 | [6] -0.053 | [7] 0.006 | [8] -0.066 | [9] -0.05 | [10] -0.007 | [11] 0.032 | [12] -0.002 | [13] 0.004 | [14] 0.052 | [15] 0.02 | [16] 0.007 | [17] -0.037 | [18] 0.027 | [19] 0.086 | [20] 0.013

GFER (UniProt P55789)
inactive: [1] -0.004 | [2] 0.109 | [3] -0.099 | [4] -0.135 | [5] -0.022 | [6] -0.094 | [7] 0 | [8] 0.005 | [9] -0.067 | [10] 0.018 | [11] -0.071 | [12] 0.027 | [13] 0.013 | [14] 0.061 | [15] -0.043 | [16] 0.018 | [17] -0.01 | [18] 0.086 | [19] 0.029 | [20] 0.022

GET4 (UniProt Q7L5D6)
inactive: [1] 0.049 | [2] -0.031 | [3] 0.064 | [4] 0.051 | [5] 0.025 | [6] -0.012 | [7] 0.01 | [8] 0.034 | [9] 0.016 | [10] -0.023 | [11] -0.03 | [12] 0.008 | [13] 0.014 | [14] 0.008 | [15] -0.07 | [16] 0.02 | [17] 0.009 | [18] -0.02 | [19] 0.005 | [20] 0.048

FTL (UniProt P02792)
inactive: [1] -0.14 | [2] -0.099 | [3] -0.235 | [4] 0.001 | [5] -0.013 | [6] 0.072 | [7] 0.054 | [8] 0.064 | [9] 0.068 | [10] -0.071 | [11] -0.107 | [12] -0.02 | [13] 0.073 | [14] 0.043 | [15] -0.122 | [16] -0.097 | [17] -0.084 | [18] -0.117 | [19] 0.057 | [20] -0.042

GART (UniProt P22102)
inactive: [1] 0.099 | [2] -0.069 | [3] 0.059 | [4] -0.017 | [5] 0.03 | [6] -0.055 | [7] 0.065 | [8] 0.065 | [9] 0.045 | [10] -0.092 | [11] 0.059 | [12] 0.05 | [13] 0.075 | [14] -0.032 | [15] -0.077 | [16] 0.017 | [17] 0.086 | [18] 0.092 | [19] -0.08 | [20] 0.137

GADD45GIP1 (UniProt Q8TAE8)
inactive: [1] 0 | [2] 0.047 | [3] -0.18 | [4] 0.078 | [5] -0.017 | [6] 0.097 | [7] -0.025 | [8] 0.019 | [9] 0.061 | [10] -0.055 | [11] 0.007 | [12] -0.093 | [13] 0.022 | [14] 0.061 | [15] 0.054 | [16] 0.013 | [17] -0.199 | [18] -0.047 | [19] 0.022 | [20] 0.056

GAGE5 (UniProt Q13069)
inactive: [1] 0.005 | [2] 0.157 | [3] 0.145 | [4] -0.034 | [5] 0.042 | [6] 0.075 | [7] -0.01 | [8] -0.092 | [9] 0.023 | [10] 0.025 | [11] -0.142 | [12] -0.122 | [13] 0.028 | [14] -0.024 | [15] 0.035 | [16] 0.006 | [17] 0.059 | [18] 0.053 | [19] 0.107 | [20] 0.044

FRYL (UniProt O94915)
inactive: [1] 0.022 | [2] -0.016 | [3] 0.01 | [4] 0.039 | [5] -0.032 | [6] -0.011 | [7] 0.02 | [8] 0.054 | [9] 0.057 | [10] -0.004 | [11] 0.064 | [12] 0.029 | [13] 0.002 | [14] 0.015 | [15] -0.042 | [16] -0.021 | [17] -0.063 | [18] -0.013 | [19] 0.028 | [20] 0.034

GFPT1 (UniProt Q06210)
inactive: [1] 0.054 | [2] -0.053 | [3] 0 | [4] -0.113 | [5] 0.023 | [6] -0.053 | [7] -0.011 | [8] -0.005 | [9] -0.004 | [10] 0.035 | [11] 0.007 | [12] 0.066 | [13] 0.017 | [14] -0.003 | [15] 0.001 | [16] -0.025 | [17] 0.049 | [18] 0.014 | [19] -0.066 | [20] 0.051

GDI2 (UniProt P50395)
inactive: [1] 0.005 | [2] 0.02 | [3] 0.009 | [4] -0.055 | [5] 0.034 | [6] -0.121 | [7] 0.025 | [8] 0.003 | [9] -0.025 | [10] 0.04 | [11] 0.012 | [12] -0.002 | [13] -0.004 | [14] 0.018 | [15] -0.03 | [16] -0.021 | [17] 0.016 | [18] -0.035 | [19] -0.06 | [20] 0.032

Random excerpt: two entries already listed
GFPT1 (UniProt Q06210)
inactive: [1] 0.054 | [2] -0.053 | [3] 0 | [4] -0.113 | [5] 0.023 | [6] -0.053 | [7] -0.011 | [8] -0.005 | [9] -0.004 | [10] 0.035 | [11] 0.007 | [12] 0.066 | [13] 0.017 | [14] -0.003 | [15] 0.001 | [16] -0.025 | [17] 0.049 | [18] 0.014 | [19] -0.066 | [20] 0.051

GFER (UniProt P55789)
inactive: [1] -0.004 | [2] 0.109 | [3] -0.099 | [4] -0.135 | [5] -0.022 | [6] -0.094 | [7] 0 | [8] 0.005 | [9] -0.067 | [10] 0.018 | [11] -0.071 | [12] 0.027 | [13] 0.013 | [14] 0.061 | [15] -0.043 | [16] 0.018 | [17] -0.01 | [18] 0.086 | [19] 0.029 | [20] 0.022

Continued.

GDAP1 (UniProt Q8TB36)
inactive: [1] -0.042 | [2] 0.036 | [3] 0.077 | [4] 0.006 | [5] 0 | [6] 0.161 | [7] 0.009 | [8] -0.08 | [9] 0.091 | [10] 0.105 | [11] -0.071 | [12] 0.028 | [13] 0.039 | [14] -0.081 | [15] -0.03 | [16] 0.014 | [17] 0.051 | [18] -0.07 | [19] 0.04 | [20] 0.034

FOXRED1 (UniProt Q96CU9)
inactive: [1] 0.003 | [2] -0.006 | [3] 0.05 | [4] -0.095 | [5] 0.061 | [6] 0.002 | [7] 0.032 | [8] -0.051 | [9] -0.016 | [10] -0.128 | [11] -0.06 | [12] 0.06 | [13] 0.026 | [14] 0.011 | [15] -0.099 | [16] -0.022 | [17] 0.038 | [18] 0.089 | [19] -0.063 | [20] 0.05

FUT11 (UniProt Q495W5)
inactive: [1] -0.056 | [2] 0.067 | [3] 0.009 | [4] -0.043 | [5] 0.046 | [6] -0.001 | [7] 0.063 | [8] -0.053 | [9] 0.022 | [10] 0.034 | [11] -0.127 | [12] -0.069 | [13] -0.084 | [14] 0.274 | [15] 0.069 | [16] -0.004 | [17] -0.131 | [18] 0.019 | [19] 0.088 | [20] 0.029

FXN (UniProt Q16595)
inactive: [1] -0.022 | [2] 0.13 | [3] 0.129 | [4] -0.135 | [5] 0.044 | [6] 0.063 | [7] 0.067 | [8] 0.017 | [9] 0.03 | [10] 0.262 | [11] 0 | [12] -0.023 | [13] 0.027 | [14] 0.034 | [15] 0.002 | [16] 0 | [17] 0.089 | [18] 0.065 | [19] -0.054 | [20] -0.027

FUBP1 isoform 2 (UniProt Q96AE4)
inactive: [1] 0.002 | [2] 0.038 | [3] 0.002 | [4] -0.04 | [5] 0.014 | [6] -0.012 | [7] -0.023 | [8] -0.034 | [9] -0.05 | [10] 0.019 | [11] -0.03 | [12] -0.059 | [13] -0.01 | [14] 0.006 | [15] 0.045 | [16] -0.012 | [17] 0.012 | [18] 0.01 | [19] 0.029 | [20] 0.031

FPGT (UniProt O14772)
inactive: [1] 0.033 | [2] -0.037 | [3] 0.09 | [4] -0.057 | [5] 0.007 | [6] -0.029 | [7] 0.007 | [8] 0.007 | [9] -0.009 | [10] -0.09 | [11] -0.033 | [12] 0.103 | [13] -0.004 | [14] 0.024 | [15] -0.085 | [16] 0.016 | [17] 0.082 | [18] 0.028 | [19] -0.085 | [20] 0.024
